Test results taken from US20240368302A1 (NANOMAB TECHNOLOGY, published 2024).
Residue numbers refer to the chain shown, from its start. Results are given in words; binding and its absence hold for the method and conditions named. Some binding calls cover weakened binding; strength is not graded here.

B1: MY1530-4-28 (VHH)
VHH: QVQLQESGGGSVQAGGSLRLSCAASGFSVSTTWMHWVRQAPGKGLEWVSRIAINDHTFYAESVKGRFTMSTDNAKNTVYLQMTSLKPEDTAVYYCSPYSDYRIRGQGTQVTVSS
notes: Expressed in E. coli WK6 from vector pMECS, purified on a nickel column; also called MY1530-4-28 VHH; anti-TROP2 single domain antibody
B2: MY1530-6-1 (VHH)
VHH: QVQLQESGGGSVQAGGSLRLSCAASGFPYSSYSMGWFRQAPGKEREGVAAIYTGGGSTYYAGSVKGRFTISQEHATNTLYLQMNSLKPEDTAMYYCAANMVDNGVISGIQALGVRYYNYWGQGTQVTVSS
notes: Expressed in E. coli WK6 from vector pMECS, purified on a nickel column; also called MY1530-6-1 VHH; anti-TROP2 single domain antibody
B3: MY1530-2-53 (VHH)
VHH: QVQLQESGGGSVQAGGSLRLSCAVSGLTSSTTCMGWFRQAPGKEREGVAVIRSSGETTAADSVKGRFTISRDNAKNTLSLQMTSLKPEDTAMYYCAAAWPYSGCLLPLSSGDFTYWGQGTQVTVSS
notes: Expressed in E. coli WK6 from vector pMECS, purified on a nickel column; also called MY1530-2-53 VHH; anti-TROP2 single domain antibody
B4: MY1530-5-17 (VHH)
VHH: QVQLQESGGGSVQPGGSLRLSCVVSGYTVSSVCMAWFRQAPGMERELVAGFYHSGGTYYGDSVKGRFTASQDNAKNTLYLQMNSLKPEDTATYYCARARYPSSACGTSPSNYNIWGQGTQVTVSS
notes: Expressed in E. coli WK6 from vector pMECS, purified on a nickel column; also called MY1530-5-17 VHH; anti-TROP2 single domain antibody
B5: MY1530-4-22 (VHH)
VHH: B4 VHH with P14A, R19K
notes: Expressed in E. coli WK6 from vector pMECS, purified on a nickel column; also called MY1530-4-22 VHH; anti-TROP2 single domain antibody
B6: MY1530-5-54 (VHH)
VHH: B4 VHH with V24A, V29A, M43K, F51Y
notes: Expressed in E. coli WK6 from vector pMECS, purified on a nickel column; also called MY1530-5-54 VHH; anti-TROP2 single domain antibody
B7: MY1530-1-26 (VHH)
VHH: QVQLQESGGGSVQAGGSLRLSCVVSGYTTTRYSMAWFRQAPGKEREGVAGIDTDVLTTYKPSVEGRFTISRDSAKRTLYLQMNSLKPEDTAMYYCATGTGNFLALDPVWYNTWGQGTQVTVSS
notes: Expressed in E. coli WK6 from vector pMECS, purified on a nickel column; also called MY1530-1-26 VHH; anti-TROP2 single domain antibody
B8: MY1530-1-20 (VHH)
VHH: QVQLQESGGGSVLAGGSLRLSCTVSGSFVSSRSMAWFRQTPGKEREGVAAISQYGDPKYAGSVKGRFTMSRDNAKNTLLLQMNSLKPEDTAIYYCAAGEAWELATLSRSDYIYWGQGTQVTVSS
notes: Expressed in E. coli WK6 from vector pMECS, purified on a nickel column; also called MY1530-1-20 VHH; anti-TROP2 single domain antibody

The binders below were run against rhesus monkey TROP2-Fc antigen protein (rhesus monkey) (assay: ELISA, coated rhesus monkey TROP2-Fc).

binding	Binder
binds	B1
binds	B2
binds	B3
binds	B4
binds	B5
binds	B6
binds	B7
binds	B8
